US20260041696A1, “IN-SITU PRODUCTION OF ANTI-INFLAMMATORY LIPIDS USING MILK FAT GLOBULES” (THE REGENTS OF THE UNIVERSITY OF CALIFORNIA, priority 2023, published 2026)

Experiment: Incubation of milk cream (MFG) with DHA at room temperature or on ice; free and total oxylipins by UPLC-MS/MS
Parameters: species or system bovine
Settings: for detection of DHA-derived diols: across treatments regardless of DHA addition

Compound | detection of DHA-derived diols | share esterified (bound) (milk cream incubated with DHA) | share in free form (milk cream incubated with DHA)
CC/C=C\CC(O)C(O)C/C=C\C/C=C\C/C=C\C/C=C\CCC(=O)O (racemic) [16(17)-DiHDPA, (±)16,17-dihydroxy-4Z,7Z,10Z,13Z,19Z-docosapentaenoic acid] | not detected in most replicates | – | –
CCC(O)C(O)C/C=C\C/C=C\C/C=C\C/C=C\C/C=C\CCC(=O)O (racemic) [19(20)-DiHDPA, (±)19,20-dihydroxy-4Z,7Z,10Z,13Z,16Z-docosapentaenoic acid] | not detected in most replicates | – | –
CCC1OC1CC=CCC=CCC=CCC=CCC=CCCC(=O)O (stereo not shown) [19(20)-EpDPE, 19(20)-epoxydocosapentaenoic acid] | – | 60% | 40%
